These results are taken from the supplement of paper PMC4604168 (melanoma cell lines).

Some of the results follow. Many values rest on one well or one pass, so single values are uncertain.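 Cells were imaged in 1,536-well plates, and nuclei stained with an antibody against cleaved PARP were counted against all DNA-stained nuclei to give the apoptosis fraction. Screening doses were chosen to leave most cells alive, and resting and induced cleaved-PARP levels differ strongly between cell lines.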

For the assay, the system named is WM115. Briefly: cleaved PARP positive nuclei fraction relative to DMSO control; melanoma cells; higher = more apoptosis. Conditions: library dose: low library concentration; 72 h.
On to `COc1cc(Nc2ncc(F)c(Nc3ccc4c(n3)NC(=O)C(C)(C)O4)n2)cc(OC)c1OC` [Tamatinib] + O=C(Nc1ccccc1)c1cc([N+](=O)[O-])ccc1Cl [GW9662] (first compound 0.4 µM, partner dose 2 µM), for which the “cleaved PARP positive nuclei fraction” value was 178%.

For `Cn1cncc1[C@@](N)(c1ccc(Cl)cc1)c1ccc2c(c1)c(-c1cccc(Cl)c1)cc(=O)n2C` [tipifarnib] + O=C(O)C(=O)Nc1sc2c(c1C(=O)O)CCNC2 [TCS401] (first compound 0.01 µM, partner dose 1.66667 µM), the “cleaved PARP positive nuclei fraction” value amounted to 92.7%.

Regarding `C=CCNC1=C2C[C@@H](C)C[C@H](OC)[C@H](O)[C@@H](C)/C=C(\C)[C@H](OC(N)=O)[C@@H](OC)/C=C\C=C(/C)C(=O)NC(=CC1=O)C2=O` [Tanespimycin] + COc1cc(Nc2ncc(F)c(Nc3ccc4c(n3)NC(=O)C(C)(C)O4)n2)cc(OC)c1OC [Tamatinib] (first compound 0.002 µM, partner dose 0.4 µM), the “cleaved PARP positive nuclei fraction” value is 189%.

Take `Nc1cccc2c1CN(C1CCC(=O)NC1=O)C2=O` (centres undefined) [lenalidomide] + O=C(O)c1ccc(-c2c[nH]c3ncc(-c4ccccc4)cc23)cc1C1CCCC1 [GSK650394] (first compound 1 µM, partner dose 0.16 µM): the “cleaved PARP positive nuclei fraction” value is 75.8%.

In the case of `Cn1cncc1[C@@](N)(c1ccc(Cl)cc1)c1ccc2c(c1)c(-c1cccc(Cl)c1)cc(=O)n2C` [tipifarnib] + CN(C)S(=O)(=O)c1ccc2c(c1)/C(=C/c1cc3c([nH]1)CCCC3)C(=O)N2 [SU6656] (first compound 0.01 µM, partner dose 0.4 µM), the “cleaved PARP positive nuclei fraction” value was found to be 907%.

For `Cc1nc(Nc2ncc(C(=O)Nc3c(C)cccc3Cl)s2)cc(N2CCN(CCO)CC2)n1` [dasatanib] + C=CCn1c(=O)c2cnc(Nc3ccc(N4CCN(C)CC4)cc3)nc2n1-c1cccc(C(C)(C)O)n1 [MK1775] (first compound 0.004 µM, partner dose 0.02 µM), the “cleaved PARP positive nuclei fraction” value was determined as 183%.

On to `O=C(CCCCCCC(=O)Nc1ccccc1)NO` [vorinostat] + COc1ccc(COc2ccc(Cc3cnc(N)nc3N)cc2OC)cc1 [GW2580] (first compound 0.08 µM, partner dose 1 µM), for which the “cleaved PARP positive nuclei fraction” value turned out to be 46.6%.

On to `C[C@@H]1CCN(C(=O)CC#N)C[C@@H]1N(C)c1ncnc2[nH]ccc12` + CCc1ccc(CCOc2ccc(CC3SC(=O)NC3=O)cc2)nc1 [pioglitazone] (first compound 1 µM, partner dose 2 µM), for which the “cleaved PARP positive nuclei fraction” value was found to be 143%.

With `C#Cc1cccc(Nc2ncnc3cc(OCCOC)c(OCCOC)cc23)c1` [erlotinib] + CC(C)(C)c1cnc(CSc2cnc(NC(=O)C3CCNCC3)s2)o1 [SNS-032] (first compound 0.8 µM, partner dose 0.01 µM), the “cleaved PARP positive nuclei fraction” value worked out at 95.2%.

Take `Cn1cncc1[C@@](N)(c1ccc(Cl)cc1)c1ccc2c(c1)c(-c1cccc(Cl)c1)cc(=O)n2C` [tipifarnib] + N#Cc1c(O)c2c(-c3ccc(-c4ccccc4O)cc3)csc2[nH]c1=O [A769662] (first compound 0.01 µM, partner dose 2 µM): the “cleaved PARP positive nuclei fraction” value is 74.8%.

With `Cn1cncc1[C@@](N)(c1ccc(Cl)cc1)c1ccc2c(c1)c(-c1cccc(Cl)c1)cc(=O)n2C` [tipifarnib] + COc1cc(N2CCC(N3CCN(C)CC3)CC2)ccc1Nc1ncc(Cl)c(Nc2ccccc2S(=O)(=O)C(C)C)n1 [NVP-TAE684] (first compound 0.01 µM, partner dose 0.08 µM), the “cleaved PARP positive nuclei fraction” value was found to be 502%.

On to `COCC[n+]1c2c(n(Cc3cnccn3)c1C)C(=O)c1ccccc1C2=O` + NC(=O)Nc1cc(-c2cccc(F)c2)sc1C(=O)N[C@H]1CCCNC1 [AZD7762] (first compound 0.0004 µM, partner dose 0.02 µM), for which the “cleaved PARP positive nuclei fraction” value is 68.6%.

`Nc1cccc2c1CN(C1CCC(=O)NC1=O)C2=O` (centres undefined) [lenalidomide] + OCCn1cc(-c2cnc3nnn(Cc4ccc5ncccc5c4)c3n2)cn1 [PF04217903] (first compound 1 µM, partner dose 1 µM): the “cleaved PARP positive nuclei fraction” value came to 173%.

Take `Cn1nnc2c(C(N)=O)ncn2c1=O` [temozolomide] + Cc1ccc(NC(=O)c2cccc(N(C)C)c2)cc1NC(=O)c1ccc(O)cc1 [ZM336372] (first compound 2 µM, partner dose 2 µM): the “cleaved PARP positive nuclei fraction” value was found to be 80.3%.
